First the molecules themselves.
B1: phage displaying YDWWYPWSW (SEQ ID NO:95) (peptide)
peptide: YDWWYPWSW
notes: whole phage tested
B2: phage displaying CFQNRC (SEQ ID NO:102) (peptide)
peptide: CFQNRC
B3: phage displaying GLDTYRGSP (SEQ ID NO:96) (peptide)
peptide: GLDTYRGSP
notes: whole phage tested
B4: phage displaying … (SEQ ID NO:104) (peptide)
peptide: CLRQSYSYNC
B5: phage displaying … (SEQ ID NO:93) (peptide)
peptide: CEQRQTQEGC
B6: phage displaying SDNRYIGSW (SEQ ID NO:97) (peptide)
peptide: SDNRYIGSW
notes: whole phage tested
B7: phage displaying … (SEQ ID NO:106) (peptide)
peptide: CEPYWDGWFC
B8: phage displaying … (SEQ ID NO:105) (peptide)
peptide: CYIWPDSGLC
B9: phage displaying VVISYSMPD (SEQ ID NO:112) (peptide)
peptide: VVISYSMPD
notes: whole phage tested
B10: phage displaying KQFSYRYLL (SEQ ID NO:111) (peptide)
peptide: KQFSYRYLL
notes: whole phage tested
B11: phage displaying DEEGYYMMR (SEQ ID NO:110) (peptide)
peptide: DEEGYYMMR
notes: whole phage tested

Sequences of proteins named here, by UniProt entry; tags and fusion partners are left off. Residues count along the entry.
UniProt P05106, residues 742-788: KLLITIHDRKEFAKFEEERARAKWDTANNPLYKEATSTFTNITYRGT
UniProt P18084, residues 743-799: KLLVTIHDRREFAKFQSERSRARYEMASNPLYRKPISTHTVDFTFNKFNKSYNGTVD

Results are given in words; binding and its absence hold for the method and conditions named. Some entries that bind do so weakly or less than the wild type.

For one assay, the target named is GST-β3cyto (GST fusion protein of the β3 integrin cytoplasmic domain) (UniProt P05106). In words: phage binding to coated GST fusion proteins, colony counts (FIG. 9).
As to B1, the binding result was “binds”.
On the same count and under the same terms, next, B2: “binds”; B3: “binds”; B4: “binds”.
Same read-out and setting: next, B5: “binds”.
B6: the binding entry is “binds”.

Another assay addresses GST-β5cyto (GST fusion protein of the β5 integrin cytoplasmic domain) (UniProt P18084). In words: phage binding to coated GST fusion proteins, colony counts (FIG. 10).
Regarding B7, the binding result was “binds”.
Regarding B8, the binding entry was “binds”.
As for B9, the binding result is listed as “binds”.
Turning to B10, the binding result is on record as “binds”.
Still for that read-out and setting: next, B11: “binds”.
